Data taken from PubChem BioAssay AID504467 (National Center for Advancing Translational Sciences (NCATS), 2011).
Among all 330,000 compounds or so, about 7,700 (2.3%) were called active. Inconclusive means that the source gave no clear call. Such entries were picked first, then a sample of the others. Calls come from the whole dose curve; as a rule, active = well fitted inhibition curve with a large enough effect; inconclusive = small, poorly fitted or top-dose-only effect, or effect the other way; inactive = flat fitted curve, though single readings scatter. Where the call is inconclusive, the potency comes from a doubtful curve fit.
Potency is the fitted concentration of half-maximal effect.

Assay: qHTS screen for small molecules that inhibit ELG1-dependent DNA repair in human embryonic kidney (HEK293T) cells expressing luciferase-tagged ELG1; note: nearly all actives have a fitted effect of over 55% in size
Details: HEK293T ELG1-luciferase reporter, luminescence, 16 h, DNA damage induced by 5-fluorouridine; series mostly up to 46.1 µM
Summary of the method: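 HEK293T cells expressing luciferase-tagged ELG1 (2,000/well) received 5-Fluorouridine plus compound or DMSO for 16 hr at 37 °C. Luciferase was read by ONE-Glo luminescence after 30 min at room temperature.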
In the case of `Cc1ccc2nc(N3CCN(Cc4nnnn4C4CCCC4)CC3)c(C#N)cc2c1`, the Potency was inconclusive: 20.6 µM [inhibitor, partial curve]. For `CC(=O)c1cccc(CN2CCC(C(=O)Nc3ccc(Oc4cccnc4)cc3)CC2)c1`, the Potency was inconclusive: 29.1 µM [inhibitor, single point]. With `CCN(c1ccccc1)S(=O)(=O)c1nnc(NC(=O)CC(C)C)s1` the Potency was “inactive”. In the case of `O=S(=O)(c1ccccc1)c1ncc(C(F)(F)F)cc1O`, the Potency was “inactive”. With `O=C(O)CCCNC(=O)CC1S/C(=N/N=C/c2ccccc2O)NC1=O` (centres undefined) the Potency was “inactive”. With `c1coc(-c2nc3ccccc3nc2-c2ccco2)c1` the Potency was “inactive”. For `O=C(CCCSc1nc2ccccc2s1)NCc1ccco1`, the Potency was inconclusive: 29.1 µM [activator, partial curve, poor fit]. In the case of `O=C(NN=C(Cc1ccccc1)Cc1ccccc1)c1ccc(F)cc1`, the Potency was “inactive”. In the case of `COc1ccccc1N1CCN(c2ccc([N+](=O)[O-])cc2Cl)CC1`, the Potency was inconclusive: 7.31 µM [inhibitor, partial curve, poor fit]. For `CCCCN(C(=O)c1[nH]c(C)c(C(C)=O)c1C)c1c(N)n(CCCC)c(=O)[nH]c1=O`, the Potency was “inactive”. For `CCOC(=O)C1CCN(S(=O)(=O)c2ccc3c(c2)CC(C)N3C(=O)C2CCC2)CC1` (centres undefined), the Potency was inconclusive: 23.1 µM [inhibitor, single point]. In the case of `O=C(O)COc1ccc(-c2nccc(-c3cccs3)n2)cc1`, the Potency was inconclusive: 10.3 µM [activator, partial curve, poor fit]. With `Cc1ccccc1SCC(=O)NNC(=O)c1ccncc1` the Potency was inconclusive: 29.1 µM [activator, single point]. With `CCN(c1ccccc1)S(=O)(=O)c1cccc(C(=O)Nc2ccc(C)cn2)c1` the Potency was inconclusive: 25.9 µM [inhibitor, partial curve, poor fit]. With `COC(=O)c1cc(COC(=O)CNC(=O)c2ccc(Br)cc2)oc1C` the Potency was inconclusive: 20.6 µM [activator, partial curve, poor fit]. With `CC(=O)c1ccc(NC(=O)CSC(C)C)cc1` the Potency was inconclusive: 14.6 µM [activator, partial curve]. In the case of `COc1ccccc1OCCC(=O)OCC(=O)Nc1cc(S(=O)(=O)N(C)C)ccc1Cl`, the Potency was “inactive”. In the case of `Clc1ccc(-c2nnc(-c3ccc(Br)o3)o2)c(Cl)c1`, the Potency was inconclusive: 9.2 µM [activator, partial curve]. With `C=CCc1ccc(OCCN2CCc3ccccc3C2)c(OC)c1` the Potency was “inactive”. For `CCc1ccc(C(=O)CSc2nc3ccccc3c(=O)[nH]2)cc1`, the Potency was inconclusive: 18.4 µM [activator, single point]. With `Cc1ccc(S(=O)(=O)N2CCCCC2)cc1NC(=O)CNC(C)c1ccc(Cl)c(Cl)c1` (centres undefined) the Potency was “inactive”. For `COc1cccc2c1cc1c(=O)n(CC(=O)NC3CCCCC3)nc(C)n12`, the Potency was inconclusive: 18.3 µM [activator, partial curve, poor fit]. For `COc1ccc(NC(=S)NCCc2c[nH]c3ccccc23)c(OC)c1`, the Potency was inconclusive: 9.2 µM [inhibitor, partial curve, poor fit]. With `COc1cccc(CN(C)C(=O)CCNC(=O)c2ccco2)c1` the Potency was “inactive”. In the case of `CCOc1ccc(Oc2c(/C=N/NC(=O)COc3ccccc3OC)c(C)nn2-c2ccccc2)cc1`, the Potency was inconclusive: 23.1 µM [inhibitor, single point]. For `CC(Oc1cc2oc(=O)c3c(c2cc1Cl)CCC3)C(=O)NCC1CCC(C(=O)O)CC1` (centres undefined), the Potency was inconclusive: 20.6 µM [activator, partial curve, poor fit]. With `CC(C)c1nc(N2CCN(C(=O)c3ccco3)CC2)c(C#N)c2c1COC(C)(C)C2` the Potency was inconclusive: 32.6 µM [inhibitor, single point]. For `O=C(Nc1ccncc1)Nc1cccc(F)c1`, the Potency was inconclusive: 23.1 µM [activator, single point]. For `O=C(Nc1cccc(NC(=O)c2cccs2)c1)c1ccc2c(c1)OCO2`, the Potency was inconclusive: 23.1 µM [inhibitor, single point]. With `COc1ccc(CCNC(=O)c2cc(-c3cc(C)ccc3O)n[nH]2)cc1OC` the Potency was active: 23.1 µM. With `COc1ccccc1C(=O)Nc1cccc(NC(C)=O)c1` the Potency was “inactive”. With `COc1cc2nc(COc3ccc(C#N)cc3)n(CC#N)c(=O)c2cc1OC` the Potency was inconclusive: 23.1 µM [inhibitor, single point]. With `COc1ccc(CN(CCCN2CCOCC2)C(=O)Nc2cccc(Cl)c2)cc1OC` the Potency was inconclusive: 18.4 µM [inhibitor, partial curve, poor fit]. For `Cc1ccc2nc(-c3ccccc3)c(NC(=O)c3ccco3)n2c1`, the Potency was “inactive”. With `CCCC(=O)Nc1nc2ccc(OC)cc2s1` the Potency was inconclusive: 2.06 µM [activator, partial curve]. For `O=C(c1cnn2c(C(F)(F)F)cc(-c3ccc(Br)cc3)nc12)N1CCOCC1`, the Potency was inconclusive: 5.17 µM [inhibitor, partial curve, poor fit]. With `CCC[C@@H](CN1CCC[C@H]1CN1C(N)=NC[C@@H]1Cc1ccccc1)N1C[C@@H](Cc2ccccc2)N(CCc2ccc(Cl)c(Cl)c2)C1=N` the Potency was “inactive”. In the case of `Cc1cc(C)c([N+](=O)[O-])cc1NCC(=O)N1CCN(c2ccccc2)CC1`, the Potency was inconclusive: 29.1 µM [inhibitor, single point]. In the case of `O=C(CN1CCOCC1)Nc1ccccc1C(=O)Nc1ccccc1`, the Potency was inconclusive: 29.1 µM [inhibitor, single point]. In the case of `O=C(C1CCCN(c2ncnc3c2nc2n3CCCCC2)C1)N1CCN(c2ccccc2F)CC1` (centres undefined), the Potency was active: 9.2 µM. With `CC(Oc1ccccc1)C(=O)Nc1ccc(C(N)=O)cc1` (centres undefined) the Potency was inconclusive: 29.1 µM [activator, partial curve, poor fit]. With `COc1cccc(NC(=O)CN(C)C(=O)c2cccc(S(=O)(=O)N3CC4(C)CC3CC(C)(C)C4)c2)c1` (centres undefined) the Potency was inconclusive: 29.1 µM [inhibitor, partial curve, poor fit]. With `CN(c1ccc(C(=O)N2CCN(Cc3ccc4c(c3)OCO4)CC2)cc1)S(=O)(=O)c1ccccc1` the Potency was active: 23.1 µM. With `CC1CCN(C(=O)CSc2nc3ncccc3[nH]2)CC1` the Potency was inconclusive: 20.6 µM [activator, partial curve]. For `Cc1ccc(-n2nnnc2SCC(=O)c2cc(C)n(-c3cc(C)on3)c2C)cc1`, the Potency was inconclusive: 32.6 µM [inhibitor, single point]. For `Cc1ccccc1NC(=O)Cn1c(NCC(C)O)nc2ccccc21` (centres undefined), the Potency was “inactive”. For `COc1ccc(/C=C/C(=O)Nc2ccccc2Cl)cc1S(=O)(=O)N1CCOCC1`, the Potency was “inactive”. For `CCN(C(=O)c1ccc(C)c(Br)c1)c1ccccc1`, the Potency was inconclusive: 11.6 µM [inhibitor, partial curve]. For `COC(=O)c1ccc(NC(=O)c2cccc(C)c2)cc1`, the Potency was inconclusive: 9.2 µM [activator, partial curve, poor fit]. With `C[C@]12c3[nH]c4ccccc4c3CCN1C(=O)C(CC(=O)NCCc1ccccn1)C[C@@H]2C(=O)N1CCOCC1` (some centres undefined) the Potency was “inactive”. In the case of `C=CCn1c(SCc2ccc(C(=O)NCCO)cc2)nc2sc(C)c(C)c2c1=O`, the Potency was “inactive”. In the case of `COc1cc(C(F)(F)F)ccc1C(=O)NCCc1ccco1`, the Potency was inconclusive: 20.6 µM [activator, partial curve]. With `c1ccc(-c2nc(-c3cccnc3)n[nH]2)cc1` the Potency was inconclusive: 23.1 µM [activator, single point]. With `COc1ccc(CCNc2nc(-c3ccc(F)cc3)c(CC(=O)O)s2)cc1OC` the Potency was “inactive”. For `OC(COc1ccccc1)CN1CCN(C(c2ccccc2)c2ccccc2)CC1` (centres undefined), the Potency was inconclusive: 0.112 µM [inhibitor, full curve, poor fit]. With `CCOc1ccc(N(CC(=O)N2CCN(c3ccccc3OC)CC2)S(=O)(=O)c2ccc(C)cc2)cc1` the Potency was inconclusive: 25.9 µM [inhibitor, partial curve, poor fit]. For `O=C(Nc1ccc2c(c1)C(=O)OC2)c1ccc(F)cc1F`, the Potency was inconclusive: 29.1 µM [activator, single point]. With `CC(C)CC(=O)Nc1cccc(-c2cn3ccsc3n2)c1` the Potency was inconclusive: 6.51 µM [activator, partial curve, poor fit]. With `O=C(NCCN1CCOCC1)c1cc(-c2cccc(Cl)c2)on1` the Potency was inconclusive: 23.1 µM [activator, single point]. For `NC(=O)CSc1oc(-c2ccco2)nc1S(=O)(=O)c1ccc(Cl)cc1`, the Potency was “inactive”. With `COc1ccc(S(=O)(=O)N2CCOCC2)cc1NC(=O)Cc1ccc2c(c1)OCCO2` the Potency was “inactive”. For `COc1ccc(NC(=O)c2ccc(Cl)nc2)cc1S(=O)(=O)N1CCCCC1`, the Potency was active: 23.1 µM. With `C#CCNC(=O)C1=C[C@H](C(C)(C)C)C[C@H](OCc2ccc(CO)cc2)O1` the Potency was “inactive”. With `NC(=O)c1ccccc1OCC(=O)N1CCC(Cc2ccccc2)CC1` the Potency was inconclusive: 3.26 µM [inhibitor, full curve]. In the case of `O=C(c1ccc(Cl)nc1)N1CCN(S(=O)(=O)c2ccc3c(c2)OCCO3)CC1`, the Potency was “inactive”. For `COCCCNC(=S)NC(=O)c1ccc(C)cc1`, the Potency was inconclusive: 11.6 µM [activator, partial curve]. With `COc1cc(OC)cc(-n2nnnc2SCC(=O)Nc2nc3c(s2)CCCC3)c1` the Potency was inconclusive: 16.4 µM [inhibitor, single point]. In the case of `COc1ccccc1-c1noc(CCC(=O)Nc2cc(C(F)(F)F)ccc2Cl)n1`, the Potency was “inactive”. For `N=C1/C(=C\c2ccc(-c3cccc(Cl)c3)o2)C(=O)N=C2SC=C(c3ccccc3)N12`, the Potency was “inactive”.
